At least one structure is not confirmed: it was looked up by name or label, or the drawing left a doubt.
Key:
[1] = test system: recombinant collagenase with broad activity; test: Experiment A. Inhibition Test of Collagenase Activity; assay type: biochemical; settings: 100 μg/ml
[2] = test system: matrix metalloproteinase-1; settings: related art; cited from earlier work

Compound | Inhibition rate (%) [1] [%] | expression of matrix metalloproteinase-1 [2]
C[C@H]1c2cccc(O)c2C(=O)C2=C(O)[C@]3(O)C(=O)C(C(N)=O)=C(O)[C@@H](N(C)C)[C@@H]3[C@@H](O)[C@@H]21 [doxycycline] | 94.3±0.8 | 
O=c1cc(-c2ccc(O)c(-c3c(O)cc(O)c4c(=O)cc(-c5ccc(O)cc5)oc34)c2)oc2cc(O)cc(O)c12 [amentoflavone] |  | inhibited
